Reference: PubChem BioAssay AID2685 (National Center for Advancing Translational Sciences (NCATS), 2010)
This is one part of the list. Shown are side measurements of this screen, not its main read-out; they come without a call. Compounds called inactive in the main read-out are mostly missing here. Words in brackets tell the shape of the fitted curve; partial curves, single points and poor fits give uncertain potencies.

Experiment: qHTS Assay for Lipid Storage Modulators in Drosophila S3 Cells;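 as to cell number change: cells counted by Cell Tracker Red CMTPX staining in the red channel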
Conditions: BODIPY lipid droplet fluorescence, 18-24 h; for cell number change: measured here: cell count max response, cells fed with added oleic acid
How it was run: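 Drosophila S3 cells loaded with oleic acid (400 uM, as added) and compounds at several concentrations; lipid droplets imaged by 488-nm laser-scanning cytometry, 500–530 nm intensity and object ratio to cell channel. Percent activity normalized to 20 uM Triacsin C.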

[1] = measured here: lipid fluorescence (Fed channel) AC50, cells fed with added oleic acid
[2] = measured here: cell number channel AC50, cells fed with added oleic acid

| Compound | cell number change [%] | AC50 [1] | AC50 [2] |
| --- | --- | --- | --- |
| O=C(NCc1ccccc1)c1cccn(Cc2cccc(Cl)c2)c1=O | 6.26 | 0.92 µM [falling, full curve] |  |
| Nc1ccc(C2(c3ccc(N)cc3)CN3CCC2CC3)cc1 | -1.27 |  |  |
| COc1ccc(N2C(=O)/C(=C/c3ccc(OC)c(OC)c3)C(=O)NC2=S)cc1 | 2.46 | 20.6 µM [rising, partial curve] |  |
| COC(=O)CC1=C(C(=O)OC)C2(C(=O)Nc3c(C)cccc32)C(C#N)=C(N)O1 (stereo unspecified) | 14.5 | 6.51 µM [rising, single point] |  |
| COc1ccc(NC2=NC(C)(C)CS2)cc1 | -1.23 | 0.58 µM [falling, partial curve, poor fit] | 4.11 µM [falling, single point] |
| CCCNC(=O)N1[C@H]2CC[C@@H]1C(C(=O)OC)=C(c1c(C)noc1C)C2 | -19 | 9.2 µM [rising, partial curve] | 0.058 µM [falling, full curve, poor fit] |
| CCCCCCCCn1sccc1=O | -15.2 |  | 0.13 µM [falling, full curve, poor fit] |
| Cc1csc(=N)n1Cc1ccccc1 | 1.75 | 29.1 µM [falling, single point] | 4.11 µM [falling, single point] |
| COc1ccc(-c2nn(CCC#N)cc2C(=O)Nc2ccccc2Cl)cc1 | -47.2 |  | 20.6 µM [falling, partial curve, poor fit] |
| CCCNC(=O)c1c(N)n(CC2CCCO2)c2nc3ccccc3nc12 (stereo unspecified) | -47.7 |  | 11.6 µM [falling, partial curve, poor fit] |
| CC(C)NC(C)C(=O)C12CC3CC(CC(C3)C1)C2 (stereo unspecified) | 5.56 | 6.51 µM [falling, single point] |  |
| Fc1ccccc1N1CCN(Cc2c(F)cccc2F)CC1 | -28.4 | 29.1 µM [falling, single point] |  |
| COc1ccc(NS(=O)(=O)c2ccc(OCC(=O)N3CCN(C)CC3)cc2)cc1Cl | 26.8 |  | 0.00651 µM [rising, full curve, poor fit] |
| COc1ccc(CN2C(=O)NC(=O)/C(=C/c3ccoc3)C2=O)cc1 | -17.5 |  |  |
| COc1cccc(CN2CCNCC2)c1 | 7.09 | 29.1 µM [rising, single point] |  |
| C[N+]1(C)C2CC[C@H]1CC(OC(=O)C(CO)c1ccccc1)C2 (stereo partly specified) | 4.39 |  | 1.84 µM [falling, partial curve, poor fit] |
| CN1CCN(c2ccc(S(=O)(=O)C(F)(F)F)cc2[N+](=O)[O-])CC1 | -19.7 | 18.4 µM [falling, single point] |  |
| COc1ccc(OC)c(NC2=NCCCS2)c1 | 10.8 |  | 3.66 µM [falling, single point] |
| c1ccc(CNc2ncnc3nc[nH]c23)cc1 |  |  | 0.116 µM [falling, full curve, poor fit] |
| O=C(Nc1c(F)cc(F)cc1F)c1cccn(Cc2ccccc2)c1=O | 6.24 | 6.51 µM [rising, partial curve, poor fit] |  |
| Oc1ccc2ccccc2c1CN1CC=C(c2ccccc2)CC1 | -11.2 |  |  |

Reformatted: results already given.
Compound,cell number change [%],AC50 [1],AC50 [2]
CCCNC(=O)c1c(N)n(CC2CCCO2)c2nc3ccccc3nc12 (stereo unspecified),-47.7,,"11.6 µM [falling, partial curve, poor fit]"
CC(C)NC(C)C(=O)C12CC3CC(CC(C3)C1)C2 (stereo unspecified),5.56,"6.51 µM [falling, single point]",
Fc1ccccc1N1CCN(Cc2c(F)cccc2F)CC1,-28.4,"29.1 µM [falling, single point]",

(further entries)

| Compound | cell number change [%] | AC50 [1] | AC50 [2] |
| --- | --- | --- | --- |
| CCCCn1c(O)c(C(CC)=NC(C)c2ccccc2)c(=O)[nH]c1=O (stereo unspecified) | -103 |  | 18.4 µM [falling, single point] |
| COc1ccc2[nH]c(C)c(CCNCc3cc(OC)c(OC)c(OC)c3)c2c1 |  | 1.16 µM [falling, full curve] | 1.03 µM [falling, full curve] |
| C#CCOc1cc(C2C3=C(COC3=O)Nc3cc4c(cc32)OCO4)ccc1OC (stereo unspecified) | 11 |  |  |
| O=c1[nH]c(=O)n(Cc2ccccc2)c(O)c1C=Nc1ccc(CN2CCOCC2)cc1 | -31.8 |  | 6.51 µM [falling, partial curve, poor fit] |
| Fc1cccc(F)c1CN1CCN(c2ccc(Cl)cc2)CC1 | -27.9 |  |  |
| Cc1cccc(-n2c(-c3ccccc3)nc3ccccc3c2=O)n1 | 13.4 | 0.651 µM [rising, partial curve] |  |
| COc1ccc(-n2c(-c3ccco3)nc3ccccc3c2=O)cc1 | 23.3 |  | 0.731 µM [rising, full curve, poor fit] |
| CSc1ncc(Cl)c(C(=O)O)n1 (tested in a mixture with another compound) | -3.15 | 29.1 µM [falling, single point] |  |
| CCN1CCN(Cc2cc(Br)cc(OC)c2O)CC1 | -22 | 0.58 µM [falling, single point] |  |
| O=C(C[N+]12CCN(CC1)CC2)NCCc1ccc(Cl)cc1Cl | 4.52 |  |  |
| CC(CCc1ccccc1)NCCC#N (stereo unspecified) | -35.9 |  | 16.4 µM [falling, single point] |
| C[C@]12CCC3C(CCC4=C/C(=N/OCC(=O)NC(CCC(N)=O)C(=O)O)CC[C@@]43C)C1CCC2O (stereo partly specified) | -11.3 |  | 0.58 µM [rising, single point] |
| COc1cccc(N2C(=O)NC(=O)C3(Cc4cc(C)ccc4N(C)C3)C2=O)c1 (stereo unspecified) | -2.71 | 0.00461 µM [falling, full curve, poor fit] |  |
| CC1CCCC(NC(=O)COC(=O)c2cn(C)c3ccccc23)C1C (stereo unspecified) | 18.5 | 1.46 µM [rising, partial curve, poor fit] |  |
| C[C@]12CCC(=O)C=C1CC[C@@H]1C2CC[C@]2(C)C(=O)CCC12 (stereo partly specified) | -11.7 |  |  |
| COC(=O)C1=C(c2ccc(-c3ccccc3)c(F)c2)C[C@@H]2CC[C@H]1N2C(=O)NC1Cc2ccccc2C1 |  | 8.2 µM [falling, partial curve] |  |
| Cn1ccnc1P(=S)(c1nccn1C)c1nccn1C | -10.4 | 0.13 µM [falling, full curve, poor fit] |  |
| CCCCCCC(=O)c1c(O)n(-c2ccccc2OC)c(=O)[nH]c1=O |  | 0.411 µM [falling, full curve, poor fit] |  |
| CC1(C)CN=C(NCc2ccccc2Cl)S1 | -15.6 | 0.731 µM [falling, full curve] | 0.651 µM [falling, full curve, poor fit] |
| Cc1cc(OC(C)C(=O)NCC2CCC(C(=O)O)CC2)c2c3c(c(=O)oc2c1)CCC3 (stereo unspecified) | -15.6 |  |  |
| O=[N+]([O-])NC1=NCCN1Cc1ccc(Cl)nc1 | -21.4 | 0.0082 µM [falling, full curve, poor fit] |  |

| Compound | cell number change [%] | AC50 [1] | AC50 [2] |
| --- | --- | --- | --- |
| C[C@]12CC[C@@H](O)C[C@H]1CC[C@@H]1[C@@H]2CC[C@]2(C)C(=O)CC[C@@H]12 | -27.9 | 14.6 µM [falling, single point] |  |
| CC1CCCCN1Cc1cccnc1 (stereo unspecified) | 4.87 | 29.1 µM [falling, single point] |  |
| CCOC(=O)c1sc(N=Nc2c(O)[nH]c(=O)[nH]c2=O)c(C(=O)OCC)c1C | 1.96 | 29.1 µM [rising, single point] |  |
| O=C1NC(=O)C(=Cc2ccc(OCC(=O)N3CCOCC3)cc2)C(=O)N1 | -15.8 | 0.731 µM [falling, full curve] | 3.66 µM [rising, partial curve] |
| CC[N+](CC)(CC#CCO)CC#Cc1ccccc1 | -34.5 | 20.6 µM [falling, single point] | 6.51 µM [falling, partial curve] |
| Cc1ccc(O)c(CN2CCN(c3ccccc3)CC2)c1 | -13.2 | 29.1 µM [rising, single point] |  |
| O=c1[nH]c(=S)n(-c2ccc(Br)cc2)c(O)c1C=Nc1ccc(N2CCOCC2)cc1 | 9.01 | 4.11 µM [falling, partial curve, poor fit] |  |
| O=c1[nH]c(O)c(N=Nc2cccc(S(=O)(=O)N3CCOCC3)c2)c(=O)[nH]1 | -14.2 |  | 0.103 µM [falling, partial curve, poor fit] |
| C#CCN(C)[C@H](C)Cc1ccccc1 | 6.14 | 0.731 µM [rising, full curve, poor fit] |  |
| Cc1cc(=O)oc2cc3c(cc12)CCCN3 | 8.33 |  |  |
| CCOC(=O)Cn1c(=O)oc2cc(S(=O)(=O)NC3CCCc4ccccc43)ccc21 (stereo unspecified) |  |  | 0.13 µM [falling, full curve, poor fit] |
| COc1ccccc1C1=NCc2nnc(C)n2-c2ccc(Cl)cc21 | 8.31 | 0.13 µM [rising, full curve, poor fit] |  |
| CN1C(=O)/C(=C/C=C/c2ccco2)C(=O)NC1=S | -36.6 | 0.184 µM [falling, full curve] |  |
| O=C(CN1CCCCC1)c1ccccc1F | -1.09 |  |  |
| OC(CN1CC=C(c2ccccc2)CC1)c1ccccc1 (stereo unspecified) | -10.8 | 0.731 µM [falling, partial curve] |  |
| O=C1CN=C(c2ccccc2)c2cc(Br)ccc2N1Cc1cc(=O)n2ccccc2n1 | 9.86 | 8.2 µM [rising, partial curve, poor fit] |  |
| O=C1NC(=S)NC(=O)C1=Cc1ccc(Br)s1 | -49.2 | 29.1 µM [falling, single point] | 18.4 µM [falling, single point] |
| Cc1cccc(-n2c(O)c(C=NCCCN3CCOCC3)c(=O)[nH]c2=O)c1C |  |  | 6.51 µM [rising, single point] |
| CCCCNS(=O)(=O)c1ccc(OCC(=O)N2CCN(Cc3ccc4c(c3)OCO4)CC2)cc1 | -15.6 | 2.06 µM [falling, partial curve] |  |
| COc1ccccc1-n1c(CNCC2CCCO2)nc2ccccc2c1=O (stereo unspecified) |  |  | 1.64 µM [falling, partial curve] |
| O=[N+]([O-])c1cccc(NP(=O)(Oc2ccccc2)Oc2ccccc2)c1 | 17.7 |  |  |
